The results in this text go back to paper PMC12700557.

Sequences of proteins named here, by UniProt entry; tags and fusion partners are left off. A change or cut given only in a name is not applied to a line headed by its entry. A line that says so, or that is headed by a name, gives the form on record, which may keep a tag or linker.
UniProt Q86WV6: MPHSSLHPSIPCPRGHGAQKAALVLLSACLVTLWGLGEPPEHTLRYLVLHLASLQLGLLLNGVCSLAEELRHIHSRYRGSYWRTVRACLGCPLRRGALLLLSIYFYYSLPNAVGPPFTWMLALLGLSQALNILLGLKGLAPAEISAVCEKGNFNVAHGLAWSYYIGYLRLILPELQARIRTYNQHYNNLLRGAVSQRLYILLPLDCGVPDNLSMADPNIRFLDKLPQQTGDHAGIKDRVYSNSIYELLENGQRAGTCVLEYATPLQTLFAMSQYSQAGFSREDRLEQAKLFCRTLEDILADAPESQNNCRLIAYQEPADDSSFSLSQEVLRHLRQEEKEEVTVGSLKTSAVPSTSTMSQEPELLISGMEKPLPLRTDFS
Flag-STING-4A (Q86WV6, form named): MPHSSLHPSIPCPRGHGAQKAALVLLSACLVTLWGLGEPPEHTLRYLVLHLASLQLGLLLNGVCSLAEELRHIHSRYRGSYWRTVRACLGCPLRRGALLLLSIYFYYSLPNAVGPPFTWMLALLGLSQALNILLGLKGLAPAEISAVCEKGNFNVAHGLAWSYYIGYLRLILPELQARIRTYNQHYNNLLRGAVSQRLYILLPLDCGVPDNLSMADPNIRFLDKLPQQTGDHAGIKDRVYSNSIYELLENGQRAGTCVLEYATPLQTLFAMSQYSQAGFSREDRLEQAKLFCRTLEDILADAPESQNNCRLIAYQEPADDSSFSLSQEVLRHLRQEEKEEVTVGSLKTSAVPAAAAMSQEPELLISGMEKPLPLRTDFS
UniProt O43791: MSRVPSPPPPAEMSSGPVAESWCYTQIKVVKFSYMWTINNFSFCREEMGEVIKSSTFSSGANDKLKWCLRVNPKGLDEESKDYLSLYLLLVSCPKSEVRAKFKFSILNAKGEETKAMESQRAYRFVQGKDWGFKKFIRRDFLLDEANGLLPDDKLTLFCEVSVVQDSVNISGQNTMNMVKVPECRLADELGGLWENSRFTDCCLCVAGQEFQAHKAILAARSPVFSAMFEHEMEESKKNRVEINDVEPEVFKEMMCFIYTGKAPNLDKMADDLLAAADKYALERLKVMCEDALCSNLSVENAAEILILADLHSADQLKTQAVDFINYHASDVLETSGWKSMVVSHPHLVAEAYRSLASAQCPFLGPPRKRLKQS

Assay [1] concerns the target Flag-STING co-expressed with Myc-CK1γ1 (phosphorylated in the PSTST motif) (human) (UniProt Q86WV6). The assay is described as follows: co-IP; Flag-IP from 293T cells transfected with Flag-STING, SPOP and Myc-tagged casein kinases; 20 nM Baf-A1 overnight.
Assay [2] concerns the target HA-SPOP (UniProt O43791). The assay is described as follows: co-IP; HA-IP from lysates of 293T cells transfected with the indicated constructs; 10 μM MG132 overnight before collection; washed 5 times with NETN buffer.
Assay [3] has as its target GST-SPOP (UniProt O43791). In words: pull-down; GST pull-down from 293T cells transfected with the indicated constructs; 10 μM MG132 for 12 h; without 6lc.
Assay [4] deals with T1, Flag-mSTING-2A (mouse) (UniProt Q3TBT3).
T1 sequence: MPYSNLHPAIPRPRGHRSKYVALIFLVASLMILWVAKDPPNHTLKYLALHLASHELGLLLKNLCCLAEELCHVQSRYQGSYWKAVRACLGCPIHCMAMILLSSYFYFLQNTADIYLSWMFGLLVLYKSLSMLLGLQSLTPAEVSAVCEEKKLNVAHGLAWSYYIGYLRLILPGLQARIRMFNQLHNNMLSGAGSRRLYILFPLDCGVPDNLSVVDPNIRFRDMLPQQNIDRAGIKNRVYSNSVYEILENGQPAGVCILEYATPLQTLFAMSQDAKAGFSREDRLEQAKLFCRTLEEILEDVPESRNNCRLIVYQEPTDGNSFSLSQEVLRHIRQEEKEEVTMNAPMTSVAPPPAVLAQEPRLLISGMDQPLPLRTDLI
The assay is described as follows: co-IP; Flag-IP from lysates of B16 cells stably expressing the indicated molecules by lentivirus infection; 10 μM MG132 overnight.

Assay [5] addresses T2, Flag-mSTING-WT (mouse) (UniProt Q3TBT3).
T2 sequence: T1 sequence with A354S, A357S
The assay is described as above.

Positions count from the first letter of the chain named. Results are given in words; binding and its absence hold for the method and conditions named. Binding seen in cells or lysates may run through a third protein. Some results given as binding are weak or reduced against the parent protein; the word gives no strength. For part of these data: Sequences can lack the tags named with a protein.

For the substance “SPOP (tagged construct not named for this experiment) (from UniProt O43791 1-374)”, the binding result in assay [1] is on record as “binds”.
As to “Flag-STING-WT (from UniProt Q86WV6 1-379)”, the binding result in assay [2] and in assay [3] was “binds” in each case.
As to “Flag-STING-4A (from UniProt Q86WV6 1-379)”, the binding entry in assay [2] is “binds”.
As to “SPOP in B16 cells (Figure 3N) (from UniProt O43791 1-374)”, the binding entry in assay [4] and in assay [5] was “binds” in each case.
